Assay results published in paper PMC9643420.
Results are given in words; binding and its absence hold for the method and conditions named. Binding seen in cells or lysates may run through a third protein. A result given as binding can be weak or reduced; the word gives no strength.

Protein sequences, listed by entry. Tags and fused reporters are not part of them. Lines headed by an entry give the natural chain unless they say otherwise; changes in a name come on top.
UniProt Q00839: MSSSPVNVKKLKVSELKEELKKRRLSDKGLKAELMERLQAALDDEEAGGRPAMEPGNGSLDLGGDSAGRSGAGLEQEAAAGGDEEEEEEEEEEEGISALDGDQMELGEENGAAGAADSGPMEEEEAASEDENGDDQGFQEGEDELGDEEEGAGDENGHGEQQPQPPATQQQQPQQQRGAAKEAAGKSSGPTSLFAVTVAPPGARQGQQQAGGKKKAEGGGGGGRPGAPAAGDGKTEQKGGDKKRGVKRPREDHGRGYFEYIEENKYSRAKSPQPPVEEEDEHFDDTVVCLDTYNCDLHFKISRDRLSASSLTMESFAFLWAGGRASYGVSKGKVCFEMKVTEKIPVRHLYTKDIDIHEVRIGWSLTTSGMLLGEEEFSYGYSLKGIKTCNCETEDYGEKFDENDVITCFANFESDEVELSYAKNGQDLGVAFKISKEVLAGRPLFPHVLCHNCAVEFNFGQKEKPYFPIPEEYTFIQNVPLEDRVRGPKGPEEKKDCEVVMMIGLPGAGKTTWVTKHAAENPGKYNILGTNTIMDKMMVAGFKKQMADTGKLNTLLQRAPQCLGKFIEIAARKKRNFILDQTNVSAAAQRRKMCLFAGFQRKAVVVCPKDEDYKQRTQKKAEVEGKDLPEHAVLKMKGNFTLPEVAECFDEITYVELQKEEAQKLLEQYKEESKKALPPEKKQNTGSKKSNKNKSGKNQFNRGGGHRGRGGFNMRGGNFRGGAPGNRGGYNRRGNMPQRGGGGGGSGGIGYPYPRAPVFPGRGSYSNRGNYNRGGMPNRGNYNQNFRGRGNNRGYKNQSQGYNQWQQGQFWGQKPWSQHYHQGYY
UniProt P17844: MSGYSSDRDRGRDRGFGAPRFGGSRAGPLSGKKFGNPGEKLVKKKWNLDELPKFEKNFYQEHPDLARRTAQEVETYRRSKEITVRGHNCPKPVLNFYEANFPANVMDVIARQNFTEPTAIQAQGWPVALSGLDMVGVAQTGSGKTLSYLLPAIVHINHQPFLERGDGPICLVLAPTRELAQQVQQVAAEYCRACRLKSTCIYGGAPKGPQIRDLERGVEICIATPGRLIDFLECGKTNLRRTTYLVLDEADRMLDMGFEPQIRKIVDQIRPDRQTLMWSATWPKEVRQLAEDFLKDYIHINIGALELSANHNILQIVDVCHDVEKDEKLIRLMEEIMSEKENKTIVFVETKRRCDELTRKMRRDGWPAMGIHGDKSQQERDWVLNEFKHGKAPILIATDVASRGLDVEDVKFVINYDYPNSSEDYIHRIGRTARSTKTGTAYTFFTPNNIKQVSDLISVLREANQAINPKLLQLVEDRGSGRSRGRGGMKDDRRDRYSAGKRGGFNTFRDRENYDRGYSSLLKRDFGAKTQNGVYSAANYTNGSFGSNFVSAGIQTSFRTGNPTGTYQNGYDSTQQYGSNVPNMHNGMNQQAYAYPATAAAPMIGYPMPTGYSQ

Experiments:
[1] = target: Flag-tagged HNRNPU mutant with the RGG domain mutated into a non-functional SGG domain (UniProt Q00839); assay: co-IP; tagged protein (HNRNPU-Flag, its Flag-tagged mutants, or DDX5-Myc) in HEK293T against the endogenous partner; NP40 buffer, antibody overnight at 4 °C, protein G magnetic beads, immunoblotting
[2] = target: Flag-tagged HNRNPU mutant with the SAP domain deleted (UniProt Q00839); assay: as above

endogenous DDX5 (DEAD box helicase 5) (from UniProt P17844 1-614)
binding [1]: binds
binding [2]: binds
